## Screening data

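A cell-based FRET test of anthrax lethal toxin entry, tracked through the 460 nm emission signal; the cell line is not named here. Each compound was tested as a concentration series from about 0.0005 to 40 µM. The number is the fitted AC50 of the 460 nm signal alone; lower values mean a more potent effect. A falling signal goes with compounds filed as inhibitors or cytotoxic, a rising one with activators or fluorescent compounds (inferred from the filed classes).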

Values are in µM. Common to all entries: measured here: 460 nm channel. This is a side read-out of the assay, for part of the compounds, not drawn at random. A potency from a partial, single-point or poor curve is only a rough figure. The first word of each remark tells which way the curve ran; it can be opposite to the aim of the assay.

| # | SMILES | AC50 (µM) | curve as filed |
|---|---|---|---|
| 1 | `CC1(C)CC(=O)C2=C(C1)NC(SCC(=O)Nc1ccccc1)=C(C#N)C21CCCCC1` | 1.995 | rising, partial curve |
| 2 | `CN1CCc2cc3c(cc2[C@@H]1[C@H]1OC(=O)c2c1ccc1c2OCO1)OCO3` | 0.001 | rising, full curve, poor fit |
| 3 | `Cc1cc(C(=O)CSc2nnc(-c3ccco3)o2)c(C)n1CC1COc2ccccc2O1` (stereo not drawn) | 12.59 | falling, partial curve |
| 4 | `CCOC(=O)Cc1csc(-n2sc3ccccc3c2=O)n1` | 3.162 | falling, full curve |
| 5 | `CCOc1ccc(N(CC(=O)Nc2ccc(C)c(C)c2)S(=O)(=O)c2c(C)noc2C)cc1` | 12.59 | falling, partial curve |
| 6 | `N#CCCn1c(=O)c(-c2cc(F)cc(F)c2)nc2cnc(Oc3cccc(Cl)c3)nc21` | 10 | rising, partial curve |
| 7 | `Cc1cc(C(=O)COc2ccc3ccc(=O)oc3c2)c(C)n1Cc1cccs1` | 12.59 | rising, partial curve |
| 8 | `C[n+]1cnn2c1SCC1(COC1)C2` | 7.943 | falling, partial curve |
| 9 | `Cc1cccc(N2CCN(C(=O)C3CCCN(S(=O)(=O)c4c(C)noc4C)C3)CC2)c1C` (stereo not drawn) | 31.62 | falling, single point |
| 10 | `Cc1ccc(CC2(O)CC(C)N(C)CC2C)c(C)c1` (stereo not drawn) | 0.1259 | falling, full curve |
| 11 | `CCOC(=O)c1ccc(N2C(=O)C3C(C2=O)C(C(=O)c2ccc(Cl)cc2)N2CCCC32)cc1` (stereo not drawn) | 15.85 | rising, single point |
| 12 | `COCCn1c(=S)[nH]c2cc(C(=O)N3CCc4ccccc43)ccc2c1=O` | 12.59 | rising, partial curve |
| 13 | `CCOC(=O)c1c(Nc2ccccc2N)cc(C)nc1C` | 0.007943 | falling, full curve, poor fit |
| 14 | `CCOC(=O)C1CCCN(C(=O)C2c3ccccc3Oc3ccccc32)C1` (stereo not drawn) | 1.259 | rising, full curve, poor fit |
| 15 | `CCC/C=C(\CCC)C(NP(=O)(c1ccccc1)c1ccccc1)c1ccc(C(F)(F)F)cc1` (stereo not drawn) | 25.12 | rising, single point |
| 16 | `CCOCCCN(C(=O)CNC(=O)c1ccco1)C(C(=O)NC1CCCC1)c1ccccc1C` (stereo not drawn) | 0.5012 | falling, full curve, poor fit |
| 17 | `CN(C)c1ncc2nc(-c3cc(F)cc(F)c3)c(=O)n(CCC#N)c2n1` | 7.943 | rising, partial curve |
| 18 | `CC1(C)CC(=O)C2=C(C1)OC(N)=C(C#N)C2Cc1ccccc1` (stereo not drawn) | 2.512 | rising, full curve, poor fit |
| 19 | `COc1ccc(CN(C(=O)c2ccccc2OC)C2CCS(=O)(=O)C2)cc1` (stereo not drawn) | 3.981 | rising, partial curve |
| 20 | `COCCn1c(=O)c(CCc2ccccc2)nc2cnc(Oc3cccc(Cl)c3)nc21` | 15.85 | falling, partial curve |
| 21 | `O=C1Nc2ccccc2C(O)(C(=O)NC2CC2)N1c1ccc(Cl)c(Cl)c1` (stereo not drawn) | 0.5012 | falling, full curve |
| 22 | `Nc1cccc(Cl)c1` | 31.62 | falling, partial curve, poor fit |
| 23 | `CCc1c(C)nc(SCC(=O)Nc2cccc(Br)c2)[nH]c1=O` | 2.512 | rising, full curve |
| 24 | `CCC(=O)c1ccc(N2CCCCCC2)c(F)c1` | 12.59 | falling, partial curve |
| 25 | `O=c1c2[nH]c3ccccc3c2ncn1CCN1CCNCC1` | 5.012 | falling, single point |
| 26 | `CCC(C)(C)c1ccc(O)cc1` | 0.03162 | rising, full curve, poor fit |
| 27 | `O=C(O)c1ccc2c(c1)C(=O)N(CCC1=CCCCC1)C2=O` | 3.162 | falling, single point |
| 28 | `COc1ccccc1CN(Cc1cc2c(C)ccc(C)c2[nH]c1=O)Cc1nnnn1Cc1ccco1` | 10 | falling, partial curve |
| 29 | `O=C(c1ccco1)N1CCN(c2ncnc3scc(-c4cccs4)c23)CC1` | 31.62 | falling, single point |
| 30 | `N#Cc1c(NC(=O)Cn2cnc3ccccc3c2=O)oc(-c2ccccc2)c1-c1ccccc1` | 31.62 | falling, single point |
| 31 | `O=C(COC(=O)c1cccnc1Nc1ccccc1F)NCc1ccc2c(c1)OCO2` | 5.012 | rising, single point |
| 32 | `N#CC1=C(N)SC(N)=C(C#N)C1c1ccnc2ccccc12` | 31.62 | rising, single point |
| 33 | `C=CCNC(=O)c1ccccc1NC(=O)c1ccccc1` | 10 | rising, single point |
| 34 | `CN(Cc1nc(-c2cccnc2)no1)S(=O)(=O)c1ccc(Br)cc1` | 0.07943 | falling, single point |
| 35 | `CCCc1nc(N2CCN(C)CC2)c2sc(=S)n(-c3ccccc3)c2n1` | 5.012 | rising, single point |
| 36 | `O=c1c(-c2ccc(Cl)cc2)nc2cnc(N3CCOCC3)nc2n1Cc1ccc(F)cc1` | 0.631 | rising, full curve |
| 37 | `O=C(Cc1cccs1)N1CCCC(c2nc3c(nnn3Cc3ccccc3Cl)c(=O)[nH]2)C1` (stereo not drawn) | 3.981 | rising, partial curve |
| 38 | `O=C(CN(C(=O)CCC(=O)Nc1nccs1)c1ccc(F)c(Cl)c1)NCc1ccco1` | 25.12 | rising, single point |
| 39 | `CC(C)(C)c1ccc(O)c(C[N+](C)(C)C)c1` | 0.7943 | falling, single point |
| 40 | `CC1CCC2C(=O)OC(COc3ccc(C(C)(C)C)cc3)CN2C1c1ccc(Br)cc1` (stereo not drawn) | 1 | rising, single point |
| 41 | `CCCCCc1nnc(NC(=O)CS(=O)(=O)Cc2ccccc2)s1` | 3.981 | falling, partial curve |
| 42 | `COCCN1CSC(=S)N(Cc2ccco2)C1` | 31.62 | rising, single point |
| 43 | `CC1(C)CC(=O)C2=C(C1)NC(=O)CC2c1ccccc1F` (stereo not drawn) | 5.012 | falling, partial curve, poor fit |
| 44 | `COCCN(CCOC)c1cc(C)c(C#N)c2nc3ccccc3n12` | 15.85 | rising, partial curve |
| 45 | `Cc1ccc2nc(SCC(=O)Nc3cc(C)on3)[nH]c2c1` | 5.012 | rising, single point |
| 46 | `CC1CCC2C(=O)OC(Cc3ccccc3)CN2C1c1ccc(Br)cc1` (stereo not drawn) | 1 | rising, partial curve |
| 47 | `Cc1ccc(-c2cc(C(F)(F)F)n3ncc(C(=O)O)c3n2)cc1` | 5.012 | rising, single point |
| 48 | `CNCCOCC(O)CSc1ccccc1` (stereo not drawn) | 25.12 | rising, single point |
| 49 | `Fc1ccc(-c2nnc3sc(-c4ccc5c(c4)OCO5)nn23)cc1` | 0.3162 | falling, single point |
| 50 | `COc1ccc(Cc2nc(-c3ccc(Cl)cc3)no2)cc1` | 0.1259 | falling, full curve |
| 51 | `O=C1c2ccccc2C(Nc2ccc(S(=O)(=O)N3CCOCC3)cc2)N1c1cccnc1` (stereo not drawn) | 12.59 | rising, partial curve |

The first 4 entries again:

| SMILES | AC50 (µM) | curve as filed |
|---|---|---|
| `CC1(C)CC(=O)C2=C(C1)NC(SCC(=O)Nc1ccccc1)=C(C#N)C21CCCCC1` | 1.995 | rising, partial curve |
| `CN1CCc2cc3c(cc2[C@@H]1[C@H]1OC(=O)c2c1ccc1c2OCO1)OCO3` | 0.001 | rising, full curve, poor fit |
| `Cc1cc(C(=O)CSc2nnc(-c3ccco3)o2)c(C)n1CC1COc2ccccc2O1` (stereo not drawn) | 12.59 | falling, partial curve |
| `CCOC(=O)Cc1csc(-n2sc3ccccc3c2=O)n1` | 3.162 | falling, full curve |

From PubChem BioAssay record AID912 (NCATS, 2007).